These are yes or no findings as the source states them, for the method shown.
Molecular target: S9ecto-Fc (human siglec9 ectodomain fused with human Fc domain) (human) (UniProt Q9Y336)
Assay: ELISA

The chains behind the UniProt entries cited, without tags or fusion partners. Residues count along the entry.
UniProt Q9Y336, residues 18-348: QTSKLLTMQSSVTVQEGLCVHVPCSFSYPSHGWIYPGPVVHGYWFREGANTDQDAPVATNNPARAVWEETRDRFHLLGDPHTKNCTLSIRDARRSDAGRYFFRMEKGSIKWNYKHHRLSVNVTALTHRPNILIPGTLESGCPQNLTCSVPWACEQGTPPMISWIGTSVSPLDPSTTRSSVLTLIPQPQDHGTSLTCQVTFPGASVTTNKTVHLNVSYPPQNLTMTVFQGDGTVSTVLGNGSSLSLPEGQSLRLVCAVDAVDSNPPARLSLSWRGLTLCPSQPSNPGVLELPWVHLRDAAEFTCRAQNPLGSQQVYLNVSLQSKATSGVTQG

B1: S0057 (antibody, V domains shown)
VH: QGQLVQSGAEVKKPGASVKVSCKASGYTFNNYGISWVRQAPGQGLEWMGWISAYNGFTRSTQKFQGRVTLTTDTSTSTAHMELRSLRSDDTAAYYCARDGGDGFDPWGQGTLVTVSS
VL: EIVLTQSPATLSLSPGERATLSCRASQSVSSFLAWYQQKPGQAPRLLIFDASNRATGIPARFSGSGSGTDFTLTISSLEPEDFAVYYCQQRSNWITFGQGTRLEIKRA
binding: no binding (tested: A450>0.09 (so in the source))
